Drawing on PubChem BioAssay AID2685 (National Center for Advancing Translational Sciences (NCATS), 2010), this text covers cell number change and AC50 for 59 molecules.

Some of the results follow. The main result of the screen is listed elsewhere. These columns were measured beside it and carry no call. The list favours compounds with an active or inconclusive main result. The note in brackets gives the kind of curve behind each potency; many fits are weak.

The nature of the assay: qHTS Assay for Lipid Storage Modulators in Drosophila S3 Cells.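 For cell number change: cells counted by Cell Tracker Red CMTPX staining in the red channel.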 Particulars: BODIPY lipid droplet fluorescence, 18-24 h; for cell number change: measured here: cell count max response, cells fed with added oleic acid. Put shortly:
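Drosophila S3 cells loaded with oleic acid (400 uM, as added) and compounds at several concentrations; lipid droplets imaged by 488-nm laser-scanning cytometry, 500–530 nm intensity and object ratio to cell channel. Percent activity normalized to 20 uM Triacsin C.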
A general note: In qHTS, concentration-response curves come from the screen itself.

[1] abbreviates: measured here: lipid fluorescence (Fed channel) AC50, cells fed with added oleic acid.
The mark [2] stands for this setting: measured here: cell number channel AC50, cells fed with added oleic acid.

As to `Cc1ccc(C2=NS(=O)(=O)N(C)C(C(=O)NC3CCCCC3)=C2)cc1`, the cell number change worked out at 12.4%. Take `O=C(O)CCCC(=O)Nc1ccccc1C(=O)O`: the cell number change is -6.19%. Moreover, the AC50 under setting [1] was 3660 nM [falling, full curve].

Turning to `O=C(COc1ccc(Br)cc1)Nc1cc(S(=O)(=O)N2CCCCC2)ccc1N1CCCCC1`, the cell number change is 3.42%. In addition, the AC50 under setting [1] is 259 nM [rising, full curve].

Consider `O=C(CNS(=O)(=O)c1ccccc1)N/N=C/c1ccncc1`, for which the cell number change is 0.919%. For the molecule `COc1ccc2cc3cc(C(=O)N4CC(C)CC(C)C4)oc3nc2c1` (stereo not drawn), the cell number change came out at 28.3%. Further, the AC50 under setting [2] was 51.7 nM [rising, full curve, poor fit]. Also, under setting [1], the AC50 was 20600 nM [rising, partial curve]. For the molecule `CN(C)c1nc(N(C)C)nc(N2CC(=O)N(c3ccccc3)C2=N)n1`, the cell number change is -11.4%.

`CCc1cc2c(NCc3ccccc3)nc(C)nc2s1`: the cell number change was found to be 3.72%. In addition, under setting [1], the AC50 is 3260 nM [falling, single point]. As to `COC(=O)c1ccc(/C=N/NS(=O)(=O)c2cc(C)ccc2C)cc1`, the cell number change was 58.4%. In addition, under setting [2], the AC50 was 18400 nM [rising, single point]. Also, the AC50 under setting [1] is 461 nM [falling, single point].

Consider `COc1ccccc1/C=C/C=N/N1CCN(Cc2ccc(Cl)cc2)CC1`, for which the cell number change was -5.79%. For the molecule `CCC(=O)Nc1ccc(S(=O)(=O)Nc2c(NC)c3ccccc3oc2=O)cc1`, the AC50 under setting [1] was 7310 nM [falling, partial curve]. Regarding `Cc1cc(C(=O)Cn2nnc3ccccc3c2=O)c(C)n1-c1ccccc1F`, the AC50 runs as follows: under setting [2], 326 nM [rising, full curve, poor fit]; under setting [1], 517 nM [rising, full curve].

Take `C=CCn1c(O)c(N=NC(=O)CNC(=O)c2ccco2)c2ccccc21`: the cell number change came out at 35.5%. In addition, under setting [2], the AC50 is 1460 nM [rising, partial curve]. Moreover, the AC50 under setting [1] is 1640 nM [rising, partial curve]. With `CCn1c(CNC(C)=O)nnc1SCC(=O)c1ccc(Br)cc1`, the cell number change is -43%. Moreover, the AC50 under setting [2] was 18400 nM [falling, partial curve, poor fit]. Besides, under setting [1], the AC50 was 10300 nM [falling, partial curve]. With `Cc1ccc(N=CNc2ccc(C)cc2C)c(C)c1`, the cell number change came to 14.8%. Further, under setting [1], the AC50 was 5170 nM [rising, single point]. For the molecule `COc1ccc(Cn2c(CCC(=O)Nc3ccc(C)cc3)nc3cccnc32)cc1`, the cell number change is -33%. For the same molecule, the AC50 under setting [2] was 164 nM [rising, partial curve]. Moreover, the AC50 under setting [1] was 461 nM [rising, partial curve]. Turning to `COc1ccc2c3c(cccc13)OC2=O`, the cell number change came to 3.78%. For the molecule `O=C(O)CCCCCN1C(=O)C(O)=C(C(=O)/C=C/c2ccccc2)C1c1ccc2c(c1)OCO2` (stereo not drawn), the cell number change was -27.1%. Under setting [2], the AC50 is 2310 nM [falling, full curve, poor fit]. Turning to `COC(=O)c1ccc2c(=O)[nH]c(CCl)nc2c1`, the cell number change is -40.5%. In addition, the AC50 under setting [2] is 29100 nM [falling, single point].

Take `O=C(O)C(c1ccccc1)N1C(=O)/C(=C\c2ccc(-c3cccc(Cl)c3)o2)SC1=S` (stereo not drawn): the cell number change was -19.9%. In addition, the AC50 under setting [1] is 580 nM [falling, full curve, poor fit]. In the case of `CCN1C(=O)[C@H]2[C@@H](c3ccc(C)cc3)N3C(=O)N(c4ccc(OC)cc4)C(=O)[C@@]3(CC)[C@H]2C1=O`, the cell number change is -24.9%. In addition, the AC50 under setting [1] was 5.17 nM [falling, full curve, poor fit]. As for `Cc1cc(OCCNCCO)cc(C)c1Cl`, the cell number change stood at 15.8%. The AC50 under setting [1] was 29100 nM [rising, single point]. Regarding `O=C(O)c1ccc(CSc2nc3ccc(N4C(=O)C5C6C=CC(C6)C5C4=O)cc3s2)cc1` (stereo not drawn), under setting [1], the AC50 is 23100 nM [falling, single point]. Consider `Fc1ccc(CNc2ncccn2)cc1`, for which the cell number change was -17.5%. Further, the half-maximal activity concentration (AC50) under setting [2] is 5.17 nM [falling, full curve, poor fit]. Moreover, under setting [1], the AC50 was 8200 nM [falling, partial curve]. As to `C=CCn1c(=N)c(C(=O)NCCCOC)cc2c(=O)n3cc(C)ccc3nc21`, the cell number change was -13.5%. Consider `Cc1cccc(NC(=O)CN2CCN(C(=O)CNC(=O)Cc3cccc4ccccc34)CC2)c1C`, for which the cell number change was found to be 1.24%. Moreover, the AC50 under setting [1] is 1840 nM [falling, partial curve, poor fit]. Regarding `O=C(NCCN1C(=O)S/C(=C\c2ccc(Cl)cc2Cl)C1=O)C1=COCCO1`, the AC50 under setting [1] was 18400 nM [falling, single point]. `C=CCN1C(=O)C(Cc2ccc(OCC)cc2)SC1=Nc1ccc(C(=O)O)cc1` (stereo not drawn): the cell number change was 15.1%. Further, under setting [2], the AC50 was 820 nM [falling, full curve]. Besides, the AC50 under setting [1] was 1160 nM [falling, single point]. On to `CN1CCN(CC(O)COc2ccc(C(=O)O)cc2)CC1` (stereo not drawn), for which the AC50 is, setting by setting: under setting [2], 731 nM [rising, full curve, poor fit]; under setting [1], 6510 nM [rising, single point]. As to `COC(=O)C(NC(C)=O)(Nc1ccc(C)cn1)C(F)(F)F` (stereo not drawn), the cell number change is -2.91%. For the same molecule, the concentration at half-maximal activity (AC50) under setting [2] was 517 nM [falling, full curve]. For the same molecule, the AC50 under setting [1] is 461 nM [falling, full curve].

Consider `COC(=O)c1ccc(CN2C(=O)C(C)N(C(=O)c3c(F)cccc3F)c3ccccc32)cc1` (stereo not drawn), for which the AC50 under setting [1] is 29100 nM [rising, single point].

Take `CCc1ccc(OCCCC(=O)NCc2ccco2)cc1`: the cell number change stood at 1.37%. Also, the half-maximal activity concentration (AC50) under setting [1] is 1640 nM [rising, single point].

In the case of `Cc1cccc(N=C2NC(=O)/C(=C/c3cccnc3)S2)c1`, the cell number change is 28%. Also, the AC50 under setting [1] was 651 nM [falling, single point]. As for `CN(CC(CC(=O)Nc1nncs1)c1ccccc1)S(=O)(=O)c1ccc(Br)cc1` (stereo not drawn), the cell number change stood at 50.4%. In addition, the AC50 under setting [2] was 4110 nM [rising, partial curve]. As to `Cc1ccc(S(=O)(=O)NNC(=O)c2ccc(O)cc2)cc1`, the cell number change was -9.31%. Also, the AC50 under setting [2] was 1640 nM [rising, partial curve, poor fit]. Moreover, under setting [1], the AC50 is 1300 nM [rising, full curve, poor fit]. Regarding `O=C(O)CCNC(=S)Nc1cccc(F)c1`, the cell number change is -36.1%. Also, the concentration at half-maximal activity (AC50) under setting [2] was 820 nM [falling, full curve]. Moreover, the AC50 under setting [1] is 651 nM [falling, full curve]. As to `Fc1cccc(Cl)c1CNn1cn[nH]c1=S`, the cell number change came out at 1.5%. With `CCOC(=O)CSc1nnc2c3ccccc3n(CC)c2n1`, the cell number change was 23%. Further, under setting [1], the AC50 was 29100 nM [falling, single point].

Regarding `O=C(Nc1cccnc1)c1ccc(F)c(S(=O)(=O)N2CCOCC2)c1`, the cell number change was determined as 4.05%. Moreover, the AC50 under setting [1] was 2910 nM [falling, single point]. On to `COc1ccc(N2CCN(Cc3cc(=O)c(OCC(=O)Nc4ccccc4)co3)CC2)cc1`, for which the cell number change worked out at 2.55%. The AC50 under setting [1] is 411 nM [falling, single point]. As to `O=C(Nc1ccc2c(c1)OCCO2)C1CCN(S(=O)(=O)c2ccc(Br)s2)CC1`, the cell number change was found to be 56.4%. Under setting [2], the AC50 is 16400 nM [rising, single point]. Besides, the AC50 under setting [1] was 18400 nM [rising, partial curve]. Regarding `Cc1ccc(N(CC(=O)NC(C)C)C(=O)CCC(=O)Nc2nccs2)c(C)c1`, the cell number change is 6.61%. The AC50 under setting [1] is 13000 nM [rising, partial curve, poor fit]. Regarding `Cc1ccc(O)c(C(=O)CC(=O)c2ccc(C(C)(C)C)cc2)c1`, the cell number change was -8.03%. For the same molecule, the AC50 under setting [1] was 16400 nM [falling, single point].

Regarding `CC(C(=O)N1CC2(C)CC1CC(C)(C)C2)N1C(=O)c2ccccc2C1=O` (stereo not drawn), the cell number change is -46.7%. The AC50 under setting [2] was 7310 nM [falling, partial curve]. Moreover, the AC50 under setting [1] is 6510 nM [falling, partial curve]. In the case of `O=P(O)(O)c1ccccc1OCCOCCOc1ccccc1P(=O)(O)O`, the AC50 under setting [2] is 6510 nM [falling, single point]. `Cc1c(C)c2cc(Cl)c(OCC(=O)N3CCN(c4ccc(F)cc4)CC3)cc2oc1=O`: under setting [1], the concentration at half-maximal activity (AC50) is 1840 nM [rising, full curve]. The same measure, in the same setting: to `COc1ccc(/C=N/NC(=O)Nc2cccc3nsnc23)c(OC)c1` belongs 1640 nM [rising, partial curve]. Turning to `CCS(=O)(=O)N1Cc2ccccc2CC1C(=O)N(C)CC(=O)Nc1ccc(OC)cc1` (stereo not drawn), the cell number change came to 26.4%. The AC50 under setting [1] was 2590 nM [rising, partial curve].

With `O=C(/C=C/c1ccco1)NC(=S)Nc1ccccc1Br`, the cell number change stood at 6.82%. For `CC(=O)Oc1ccc(N2C(=O)C3C4C=CC(C5CC45)C3C2=O)cc1[N+](=O)[O-]` (stereo not drawn), the cell number change is -3.62%. In addition, the concentration at half-maximal activity (AC50) under setting [1] is 4.61 nM [falling, full curve, poor fit]. As to `Cc1cc(C)nc(-n2ncc3c2CC(c2cccc(Cl)c2)CC3=O)n1` (stereo not drawn), the concentration at half-maximal activity (AC50) is, setting by setting: under setting [2], 820 nM [rising, full curve]; under setting [1], 366 nM [rising, full curve].

On to `CCCN(CCC)CC(O)COc1ccc2c(c1)OCO2` (stereo not drawn), for which the cell number change is 11.8%. Besides, the AC50 under setting [2] is 411 nM [falling, single point]. On to `Cc1ccc(NC(=S)N=Nc2c(O)n(C)c3ccc(S(=O)(=O)N4CCOCC4)cc23)cc1`, for which the cell number change is -12.6%. For the same molecule, under setting [1], the AC50 was 6510 nM [falling, partial curve].

`CC(=O)C1=C(NC(=O)c2ccc(F)cc2)CC2C1C2(C)C` (stereo not drawn): the cell number change was -19.6%. In addition, under setting [1], the AC50 was 259 nM [falling, full curve].

Take `COc1cc2[nH]c(-c3cccc(F)c3)cc(=O)c2cc1OC`: the cell number change is -19.8%. Moreover, the AC50 under setting [1] was 4.61 nM [falling, full curve, poor fit].

Consider `Cc1cc(NC(=O)c2ccc(Cn3cc([N+](=O)[O-])cn3)o2)no1`, for which the cell number change is -11.3%. Moreover, under setting [1], the AC50 is 29100 nM [rising, single point].

In the case of `Cc1ccc(S(=O)(=O)N[C@@H](C)C(=O)N2CCC(C(=O)N[C@@H](Cc3ccccc3)C(=O)O)CC2)cc1`, the cell number change was -24.2%. Regarding `Cc1cc(C(=O)CSc2ccc(F)cc2)cc(C)c1O`, the cell number change was -24%. Besides, under setting [1], the AC50 was 11600 nM [falling, partial curve]. On to `OCC[C@@H]1C[C@@H](O)[C@H](O)[C@@]2(CCCc3ccccc3O2)O1`, for which the cell number change was 26.3%. Consider `O=C(O)C1CCN(S(=O)(=O)c2ccc(N3CCC(O)CC3)c([N+](=O)[O-])c2)CC1`, for which the cell number change was -15.1%. Also, the AC50 under setting [1] was 29100 nM [falling, single point].

Usually AC50 stands for the concentration at which the activity in the assay is half-maximal. A low value points to activity at low concentration.
